Experimental data published in article PMC9102673.
These are yes or no findings as the source states them, for the method shown. In cells and extracts the contact can be indirect. These calls come from enrichment with a bait or labelling near it, and not all partners need be listed. Tags and fused reporters may be left off the sequences shown.

T1: DDIT4–APEX2 fusion protein (rigid linker) (human) (UniProt Q9NX09)
T1 sequence: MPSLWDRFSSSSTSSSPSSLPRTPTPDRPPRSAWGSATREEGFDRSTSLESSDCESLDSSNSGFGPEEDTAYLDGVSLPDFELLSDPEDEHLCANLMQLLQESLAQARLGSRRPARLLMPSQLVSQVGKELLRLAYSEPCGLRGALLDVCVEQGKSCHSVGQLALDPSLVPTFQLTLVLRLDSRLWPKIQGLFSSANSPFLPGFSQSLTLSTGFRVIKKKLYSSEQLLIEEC

B1: DNA2 (protein, UniProt P51530 1-1060)
chain: MEQLNELELLMEKSFWEEAELPAELFQKKVVASFPRTVLSTGMDNRYLVLAVNTVQNKEGNCEKRLVITASQSLENKELCILRNDWCSVPVEPGDIIHLEGDCTSDTWIIDKDFGYLILYPDMLISGTSIASSIRCMRRAVLSETFRSSDPATRQMLIGTVLHEVFQKAINNSFAPEKLQELAFQTIQEIRHLKEMYRLNLSQDEIKQEVEDYLPSFCKWAGDFMHKNTSTDFPQMQLSLPSDNSKDNSTCNIEVVKPMDIEESIWSPRFGLKGKIDVTVGVKIHRGYKTKYKIMPLELKTGKESNSIEHRSQVVLYTLLSQERRADPEAGLLLYLKTGQMYPVPANHLDKRELLKLRNQMAFSLFHRISKSATRQKTQLASLPQIIEEEKTCKYCSQIGNCALYSRAVEQQMDCSSVPIVMLPKIEEETQHLKQTHLEYFSLWCLMLTLESQSKDNKKNHQNIWLMPASEMEKSGSCIGNLIRMEHVKIVCDGQYLHNFQCKHGAIPVTNLMAGDRVIVSGEERSLFALSRGYVKEINMTTVTCLLDRNLSVLPESTLFRLDQEEKNCDIDTPLGNLSKLMENTFVSKKLRDLIIDFREPQFISYLSSVLPHDAKDTVACILKGLNKPQRQAMKKVLLSKDYTLIVGMPGTGKTTTICTLVRILYACGFSVLLTSYTHSAVDNILLKLAKFKIGFLRLGQIQKVHPAIQQFTEQEICRSKSIKSLALLEELYNSQLIVATTCMGINHPIFSRKIFDFCIVDEASQISQPICLGPLFFSRRFVLVGDHQQLPPLVLNREARALGMSESLFKRLEQNKSAVVQLTVQYRMNSKIMSLSNKLTYEGKLECGSDKVANAVINLRHFKDVKLELEFYADYSDNPWLMGVFEPNNPVCFLNTDKVPAPEQVEKGGVSNVTEAKLIVFLTSIFVKAGCSPSDIGIIAPYRQQLKIINDLLARSIGMVEVNTVDKYQGRDKSIVLVSFVRSNKDGTVGELLKDWRRLNVAITRAKHKLILLGCVPSLNCYPPLEKLLNHLNSEKLIIDLPSREHESLCHILGDFQRE
B2: ERCC6L (protein, UniProt Q2NKX8 1-1250)
chain: MEASRRFPEAEALSPEQAAHYLRYVKEAKEATKNGDLEEAFKLFNLAKDIFPNEKVLSRIQKIQEALEELAEQGDDEFTDVCNSGLLLYRELHNQLFEHQKEGIAFLYSLYRDGRKGGILADDMGLGKTVQIIAFLSGMFDASLVNHVLLIMPTNLINTWVKEFIKWTPGMRVKTFHGPSKDERTRNLNRIQQRNGVIITTYQMLINNWQQLSSFRGQEFVWDYVILDEAHKIKTSSTKSAICARAIPASNRLLLTGTPIQNNLQELWSLFDFACQGSLLGTLKTFKMEYENPITRAREKDATPGEKALGFKISENLMAIIKPYFLRRTKEDVQKKKSSNPEARLNEKNPDVDAICEMPSLSRKNDLIIWIRLVPLQEEIYRKFVSLDHIKELLMETRSPLAELGVLKKLCDHPRLLSARACCLLNLGTFSAQDGNEGEDSPDVDHIDQVTDDTLMEESGKMIFLMDLLKRLRDEGHQTLVFSQSRQILNIIERLLKNRHFKTLRIDGTVTHLLEREKRINLFQQNKDYSVFLLTTQVGGVGLTLTAATRVVIFDPSWNPATDAQAVDRVYRIGQKENVVVYRLITCGTVEEKIYRRQVFKDSLIRQTTGEKKNPFRYFSKQELRELFTIEDLQNSVTQLQLQSLHAAQRKSDIKLDEHIAYLQSLGIAGISDHDLMYTCDLSVKEELDVVEESHYIQQRVQKAQFLVEFESQNKEFLMEQQRTRNEGAWLREPVFPSSTKKKCPKLNKPQPQPSPLLSTHHTQEEDISSKMASVVIDDLPKEGEKQDLSSIKVNVTTLQDGKGTGSADSIATLPKGFGSVEELCTNSSLGMEKSFATKNEAVQKETLQEGPKQEALQEDPLESFNYVLSKSTKADIGPNLDQLKDDEILRHCNPWPIISITNESQNAESNVSIIEIADDLSASHSALQDAQASEAKLEEEPSASSPQYACDFNLFLEDSADNRQNFSSQSLEHVEKENSLCGSAPNSRAGFVHSKTCLSWEFSEKDDEPEEVVVKAKIRSKARRIVSDGEDEDDSFKDTSSINPFNTSLFQFSSVKQFDASTPKNDISPPGRFFSSQIPSSVNKSMNSRRSLASRRSLINMVLDHVEDMEERLDDSSEAKGPEDYPEEGVEESSGEASKYTEEDPSGETLSSENKSSWLMTSKPSALAQETSLGAPEPLSGEQLVGSPQDKAAEATNDYETLVKRGKELKECGKIQEALNCLVKALDIKSADPEVMLLTLSLYKQLNNN
B3: HTR3C (protein, UniProt Q8WXA8 28-447)
chain: FTINCSGFDQHGVDPAVFQAVFDRKAFRPFTNYSIPTRVNISFTLSAILGVDAQLQLLTSFLWMDLVWDNPFINWNPKECVGINKLTVLAENLWLPDIFIVESMDVDQTPSGLTAYISSEGRIKYDKPMRVTSICNLDIFYFPFDQQNCTFTFSSFLYTVDSMLLGMDKEVWEITDTSRKVIQTQGEWELLGINKATPKMSMGNNLYDQIMFYVAIRRRPSLYIINLLVPSSFLVAIDALSFYLPAESENRAPFKITLLLGYNVFLLMMNDLLPASGTPLISVYFALCLSLMVVSLLETVFITYLLHVATTQPPPMPRWLHSLLLHCTSPGRCCPTAPQKGNKGLGLTLTHLPGPKEPGELAGKKLGPRETEPDGGSGWTKTQLMELWVQFSHAMDTLLFRLYLLFMASSILTVIVLWNT
B4: ADAR (protein, UniProt P55265 1-1226)
chain: MNPRQGYSLSGYYTHPFQGYEHRQLRYQQPGPGSSPSSFLLKQIEFLKGQLPEAPVIGKQTPSLPPSLPGLRPRFPVLLASSTRGRQVDIRGVPRGVHLRSQGLQRGFQHPSPRGRSLPQRGVDCLSSHFQELSIYQDQEQRILKFLEELGEGKATTAHDLSGKLGTPKKEINRVLYSLAKKGKLQKEAGTPPLWKIAVSTQAWNQHSGVVRPDGHSQGAPNSDPSLEPEDRNSTSVSEDLLEPFIAVSAQAWNQHSGVVRPDSHSQGSPNSDPGLEPEDSNSTSALEDPLEFLDMAEIKEKICDYLFNVSDSSALNLAKNIGLTKARDINAVLIDMERQGDVYRQGTTPPIWHLTDKKRERMQIKRNTNSVPETAPAAIPETKRNAEFLTCNIPTSNASNNMVTTEKVENGQEPVIKLENRQEARPEPARLKPPVHYNGPSKAGYVDFENGQWATDDIPDDLNSIRAAPGEFRAIMEMPSFYSHGLPRCSPYKKLTECQLKNPISGLLEYAQFASQTCEFNMIEQSGPPHEPRFKFQVVINGREFPPAEAGSKKVAKQDAAMKAMTILLEEAKAKDSGKSEESSHYSTEKESEKTAESQTPTPSATSFFSGKSPVTTLLECMHKLGNSCEFRLLSKEGPAHEPKFQYCVAVGAQTFPSVSAPSKKVAKQMAAEEAMKALHGEATNSMASDNQPEGMISESLDNLESMMPNKVRKIGELVRYLNTNPVGGLLEYARSHGFAAEFKLVDQSGPPHEPKFVYQAKVGGRWFPAVCAHSKKQGKQEAADAALRVLIGENEKAERMGFTEVTPVTGASLRRTMLLLSRSPEAQPKTLPLTGSTFHDQIAMLSHRCFNTLTNSFQPSLLGRKILAAIIMKKDSEDMGVVVSLGTGNRCVKGDSLSLKGETVNDCHAEIISRRGFIRFLYSELMKYNSQTAKDSIFEPAKGGEKLQIKKTVSFHLYISTAPCGDGALFDKSCSDRAMESTESRHYPVFENPKQGKLRTKVENGEGTIPVESSDIVPTWDGIRLGERLRTMSCSDKILRWNVLGLQGALLTHFLQPIYLKSVTLGYLFSQGHLTRAICCRVTRDGSAFEDGLRHPFIVNHPKVGRVSIYDSKRQSGKTKETSVNWCLADGYDLEILDGTRGTVDGPRNELSRVSKKNIFLLFKKLCSFRYRRDLLRLSYGEAKKAARDYETAKNYFKKGLKDMGYGNWISKPQEEKNFYLCPV
B5: JUP (protein, UniProt P14923 1-745)
chain: MEVMNLMEQPIKVTEWQQTYTYDSGIHSGANTCVPSVSSKGIMEEDEACGRQYTLKKTTTYTQGVPPSQGDLEYQMSTTARAKRVREAMCPGVSGEDSSLLLATQVEGQATNLQRLAEPSQLLKSAIVHLINYQDDAELATRALPELTKLLNDEDPVVVTKAAMIVNQLSKKEASRRALMGSPQLVAAVVRTMQNTSDLDTARCTTSILHNLSHHREGLLAIFKSGGIPALVRMLSSPVESVLFYAITTLHNLLLYQEGAKMAVRLADGLQKMVPLLNKNNPKFLAITTDCLQLLAYGNQESKLIILANGGPQALVQIMRNYSYEKLLWTTSRVLKVLSVCPSNKPAIVEAGGMQALGKHLTSNSPRLVQNCLWTLRNLSDVATKQEGLESVLKILVNQLSVDDVNVLTCATGTLSNLTCNNSKNKTLVTQNSGVEALIHAILRAGDKDDITEPAVCALRHLTSRHPEAEMAQNSVRLNYGIPAIVKLLNQPNQWPLVKATIGLIRNLALCPANHAPLQEAAVIPRLVQLLVKAHQDAQRHVAAGTQQPYTDGVRMEEIVEGCTGALHILARDPMNRMEIFRLNTIPLFVQLLYSSVENIQRVAAGVLCELAQDKEAADAIDAEGASAPLMELLHSRNEGTATYAAAVLFRISEDKNPDYRKRVSVELTNSLFKHDPAAWEAAQSMIPINEPYGDDMDATYRPMYSSDVPLDPLEMHMDMDGDYPIDTYSDGLRPPYPTADHMLA
B6: PCCA (protein, UniProt P05165 53-728)
chain: SVGYDPNEKTFDKILVANRGEIACRVIRTCKKMGIKTVAIHSDVDASSVHVKMADEAVCVGPAPTSKSYLNMDAIMEAIKKTRAQAVHPGYGFLSENKEFARCLAAEDVVFIGPDTHAIQAMGDKIESKLLAKKAEVNTIPGFDGVVKDAEEAVRIAREIGYPVMIKASAGGGGKGMRIAWDDEETRDGFRLSSQEAASSFGDDRLLIEKFIDNPRHIEIQVLGDKHGNALWLNERECSIQRRNQKVVEEAPSIFLDAETRRAMGEQAVALARAVKYSSAGTVEFLVDSKKNFYFLEMNTRLQVEHPVTECITGLDLVQEMIRVAKGYPLRHKQADIRINGWAVECRVYAEDPYKSFGLPSIGRLSQYQEPLHLPGVRVDSGIQPGSDISIYYDPMISKLITYGSDRTEALKRMADALDNYVIRGVTHNIALLREVIINSRFVKGDISTKFLSDVYPDGFKGHMLTKSEKNQLLAIASSLFVAFQLRAQHFQENSRMPVIKPDIANWELSVKLHDKVHTVVASNNGSVFSVEVDGSKLNVTSTWNLASPLLSVSVDGTQRTVQCLSREAGGNMSIQFLGTVYKVNILTRLAAELNKFMLEKVTEDTSSVLRSPMPGVVVAVSVKPGDAVAEGQEICVIEAMKMQNSMTAGKTGTVKSVHCQAGDTVGEGDLLVELE

molecular target: T1, DDIT4–APEX2 fusion protein (rigid linker) (human); assay: proximity labelling; DDIT4–APEX2 (rigid linker) expressed in SK-N-SH cells; 1 mM biotin tyramide 45 min at 37 °C with or without 330 μM NaAsO2, 1 mM H2O2 for 1.5 min; biotinylated proteins captured on streptavidin magnetic particles and identified by LC-MS/MS; proteins labelled by APEX2 alone filtered out

Binder	binding
B1	binds
B2	binds
B3	binds
B4	binds
B5	binds
B6	binds
